Consider one molecule from patent US20050176933A1.

Amino acid sequences for entries named in this document (tags omitted). A change or cut given only in a name is not applied to a line headed by its entry.
UniProt P35613: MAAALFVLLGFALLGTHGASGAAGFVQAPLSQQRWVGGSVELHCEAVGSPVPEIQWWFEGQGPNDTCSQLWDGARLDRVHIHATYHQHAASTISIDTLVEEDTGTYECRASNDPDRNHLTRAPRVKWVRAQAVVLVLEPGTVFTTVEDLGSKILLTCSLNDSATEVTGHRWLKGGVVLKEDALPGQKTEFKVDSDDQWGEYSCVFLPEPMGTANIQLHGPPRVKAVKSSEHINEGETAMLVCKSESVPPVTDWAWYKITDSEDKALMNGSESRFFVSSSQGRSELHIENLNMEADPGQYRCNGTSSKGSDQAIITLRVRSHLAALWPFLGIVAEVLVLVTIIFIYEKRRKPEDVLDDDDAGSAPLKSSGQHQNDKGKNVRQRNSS

These are yes or no findings as the source states them, for the method shown. Binding can be weak; no strength is given.

For this assay, the target named is hepatoma-associated antigen HAb18G on hepatocarcinoma cell line HHCC (human) (UniProt P35613). The assay can be described thus: immuno-fluorescence staining of HHCC cells; McAb HAb18 as positive control.

B1: murine anti-human hepatoma McAb HAb18 (antibody, mouse IgG1, V domains shown)
VH: EVKLEESGGGLVQPGGSMKLSCVASGFTFSDAWMDWVRQSPEKGLEWVAEIRSKANNHAPYYTESVKGRFTISRDDSKSIIYLQMNNLRAEDTGIYYCTRDSTATHWGQGTLVTVSS
VL: SIVMTQTPTFLVVSAGDRVTITCKASQSVINDVAWYQQKPGQSPKLLIFYASNRNTGVPDRFTGSGYGTDFTFTISTVQAEDLAVYFCQQDYSPPFTFGSGTKLEIK
modifications: HRP-labelled in the competitive ELISAs
For B1, the binding entry is “binds”.
